These results are taken from the supplement of paper PMC12819154, “High-throughput peptide-centric local stability assay extends protein–ligand identification to membrane proteins, tissues and bacteria” (Nature Structural & Molecular Biology, 2025).

Protein sequences, listed by entry. Tags and fused reporters are not part of them. Lines headed by an entry give the natural chain unless they say otherwise; changes in a name come on top.
UniProt Q8C2B3: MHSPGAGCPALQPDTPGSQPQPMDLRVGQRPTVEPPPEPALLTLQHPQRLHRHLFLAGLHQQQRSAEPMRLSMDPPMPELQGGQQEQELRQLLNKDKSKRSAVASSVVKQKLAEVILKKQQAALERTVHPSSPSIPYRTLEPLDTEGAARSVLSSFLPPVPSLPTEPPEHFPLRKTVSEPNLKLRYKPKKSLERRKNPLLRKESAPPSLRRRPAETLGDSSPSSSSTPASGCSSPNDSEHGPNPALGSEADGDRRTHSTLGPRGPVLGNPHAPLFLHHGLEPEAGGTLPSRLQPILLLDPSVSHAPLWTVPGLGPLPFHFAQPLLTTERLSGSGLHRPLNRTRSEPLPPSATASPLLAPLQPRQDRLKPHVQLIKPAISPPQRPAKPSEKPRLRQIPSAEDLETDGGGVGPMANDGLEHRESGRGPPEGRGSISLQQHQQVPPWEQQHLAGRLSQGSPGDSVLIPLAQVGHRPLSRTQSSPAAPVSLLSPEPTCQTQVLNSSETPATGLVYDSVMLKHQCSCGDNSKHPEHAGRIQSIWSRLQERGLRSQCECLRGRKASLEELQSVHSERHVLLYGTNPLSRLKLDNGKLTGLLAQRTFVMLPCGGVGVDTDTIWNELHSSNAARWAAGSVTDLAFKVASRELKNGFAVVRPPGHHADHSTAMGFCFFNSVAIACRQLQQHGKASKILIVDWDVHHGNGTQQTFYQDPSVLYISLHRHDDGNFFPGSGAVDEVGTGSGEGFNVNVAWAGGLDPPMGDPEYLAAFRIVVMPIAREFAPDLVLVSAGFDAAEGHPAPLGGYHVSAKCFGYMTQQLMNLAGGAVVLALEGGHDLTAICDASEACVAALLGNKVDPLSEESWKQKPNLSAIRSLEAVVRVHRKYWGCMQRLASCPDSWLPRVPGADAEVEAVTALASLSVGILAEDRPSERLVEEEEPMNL
UniProt Q8C3R1: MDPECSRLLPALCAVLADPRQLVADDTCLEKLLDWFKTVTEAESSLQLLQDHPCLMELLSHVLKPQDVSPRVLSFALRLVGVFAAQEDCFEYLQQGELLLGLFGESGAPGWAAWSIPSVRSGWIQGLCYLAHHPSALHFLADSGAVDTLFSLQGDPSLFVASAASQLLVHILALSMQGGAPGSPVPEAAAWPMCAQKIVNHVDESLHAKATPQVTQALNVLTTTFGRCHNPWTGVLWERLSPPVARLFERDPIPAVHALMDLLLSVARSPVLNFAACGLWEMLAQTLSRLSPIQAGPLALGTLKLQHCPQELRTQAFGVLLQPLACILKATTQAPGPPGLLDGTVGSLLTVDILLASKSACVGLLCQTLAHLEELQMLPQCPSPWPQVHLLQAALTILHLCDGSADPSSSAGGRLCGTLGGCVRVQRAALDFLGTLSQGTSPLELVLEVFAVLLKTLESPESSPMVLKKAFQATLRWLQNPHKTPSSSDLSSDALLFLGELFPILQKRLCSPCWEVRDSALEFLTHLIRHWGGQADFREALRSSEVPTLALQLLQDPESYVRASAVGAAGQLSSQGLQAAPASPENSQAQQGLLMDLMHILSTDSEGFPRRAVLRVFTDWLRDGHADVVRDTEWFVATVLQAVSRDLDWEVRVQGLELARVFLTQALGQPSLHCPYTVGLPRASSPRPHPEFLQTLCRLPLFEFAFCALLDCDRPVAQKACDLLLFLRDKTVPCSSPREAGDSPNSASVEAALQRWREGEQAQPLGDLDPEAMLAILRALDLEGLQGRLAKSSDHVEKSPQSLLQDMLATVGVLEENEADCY
UniProt Q8BXR9: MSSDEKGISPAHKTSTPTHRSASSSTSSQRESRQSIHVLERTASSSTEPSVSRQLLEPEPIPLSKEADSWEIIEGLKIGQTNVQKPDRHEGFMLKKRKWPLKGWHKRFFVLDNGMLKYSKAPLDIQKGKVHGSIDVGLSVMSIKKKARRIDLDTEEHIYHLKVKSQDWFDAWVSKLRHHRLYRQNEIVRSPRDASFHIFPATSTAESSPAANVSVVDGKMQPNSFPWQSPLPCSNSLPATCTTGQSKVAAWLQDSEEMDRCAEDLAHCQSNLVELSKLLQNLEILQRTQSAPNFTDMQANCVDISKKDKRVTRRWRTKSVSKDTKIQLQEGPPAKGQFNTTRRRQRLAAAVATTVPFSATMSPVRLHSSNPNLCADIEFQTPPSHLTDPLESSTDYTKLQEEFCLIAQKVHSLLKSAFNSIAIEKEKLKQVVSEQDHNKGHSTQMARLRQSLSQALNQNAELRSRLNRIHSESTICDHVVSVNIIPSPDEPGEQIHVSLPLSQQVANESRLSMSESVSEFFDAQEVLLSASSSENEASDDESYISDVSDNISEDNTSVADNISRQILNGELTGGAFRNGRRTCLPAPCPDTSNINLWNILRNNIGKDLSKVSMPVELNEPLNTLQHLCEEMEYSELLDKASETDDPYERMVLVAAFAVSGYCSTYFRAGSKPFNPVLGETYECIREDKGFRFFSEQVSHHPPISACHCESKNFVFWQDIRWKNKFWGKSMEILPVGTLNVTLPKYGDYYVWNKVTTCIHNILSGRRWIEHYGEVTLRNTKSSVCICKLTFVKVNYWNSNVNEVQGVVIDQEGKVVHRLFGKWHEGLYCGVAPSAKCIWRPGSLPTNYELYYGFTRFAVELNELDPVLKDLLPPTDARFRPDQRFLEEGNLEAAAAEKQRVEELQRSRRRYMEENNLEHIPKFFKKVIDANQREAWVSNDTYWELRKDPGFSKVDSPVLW
UniProt Q8BXL9: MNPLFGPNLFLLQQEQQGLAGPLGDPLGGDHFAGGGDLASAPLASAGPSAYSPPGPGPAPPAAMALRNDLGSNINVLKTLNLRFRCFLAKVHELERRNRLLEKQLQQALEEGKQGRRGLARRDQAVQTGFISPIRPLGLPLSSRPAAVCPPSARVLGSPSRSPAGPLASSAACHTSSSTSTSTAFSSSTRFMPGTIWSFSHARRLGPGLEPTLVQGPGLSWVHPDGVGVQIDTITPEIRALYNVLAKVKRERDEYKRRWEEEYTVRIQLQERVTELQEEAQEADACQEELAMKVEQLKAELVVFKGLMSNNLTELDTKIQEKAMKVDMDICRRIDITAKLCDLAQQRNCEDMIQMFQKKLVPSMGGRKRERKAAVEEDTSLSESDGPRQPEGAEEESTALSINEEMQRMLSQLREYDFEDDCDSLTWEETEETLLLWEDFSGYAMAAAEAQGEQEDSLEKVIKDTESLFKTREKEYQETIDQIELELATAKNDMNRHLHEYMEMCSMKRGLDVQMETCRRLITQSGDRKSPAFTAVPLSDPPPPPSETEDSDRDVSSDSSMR
UniProt Q8BY46: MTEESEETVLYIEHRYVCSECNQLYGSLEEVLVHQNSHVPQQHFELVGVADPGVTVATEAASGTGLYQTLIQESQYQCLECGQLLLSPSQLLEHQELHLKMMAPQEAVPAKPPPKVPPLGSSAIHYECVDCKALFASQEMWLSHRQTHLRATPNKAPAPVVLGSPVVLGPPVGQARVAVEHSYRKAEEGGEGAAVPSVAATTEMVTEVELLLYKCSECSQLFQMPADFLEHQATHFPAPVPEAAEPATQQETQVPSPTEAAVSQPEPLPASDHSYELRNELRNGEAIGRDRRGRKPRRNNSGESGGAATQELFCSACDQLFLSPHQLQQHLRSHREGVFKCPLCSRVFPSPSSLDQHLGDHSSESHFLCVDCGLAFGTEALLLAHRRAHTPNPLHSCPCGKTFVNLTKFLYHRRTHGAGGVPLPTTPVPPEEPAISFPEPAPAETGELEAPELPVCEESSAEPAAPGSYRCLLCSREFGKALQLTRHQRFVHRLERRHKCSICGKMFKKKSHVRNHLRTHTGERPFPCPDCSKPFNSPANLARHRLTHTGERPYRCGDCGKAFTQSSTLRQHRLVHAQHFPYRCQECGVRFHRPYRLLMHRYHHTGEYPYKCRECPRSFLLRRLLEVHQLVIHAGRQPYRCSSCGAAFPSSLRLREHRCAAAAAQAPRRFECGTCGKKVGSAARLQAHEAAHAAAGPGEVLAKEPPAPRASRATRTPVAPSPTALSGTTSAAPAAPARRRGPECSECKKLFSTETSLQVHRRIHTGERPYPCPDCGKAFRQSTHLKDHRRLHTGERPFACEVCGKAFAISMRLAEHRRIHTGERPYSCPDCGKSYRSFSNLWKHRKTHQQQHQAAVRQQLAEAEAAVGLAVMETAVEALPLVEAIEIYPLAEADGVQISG

Some of the results follow. Most entries show no effect beyond the scatter of the controls.

Compound in the experiment: CN[C@@H]1C[C@H]2O[C@@](C)([C@@H]1OC)n1c3ccccc3c3c4c(c5c6ccccc6n2c5c31)C(=O)NC4 [staurosporine]
The experiment in a line: log2 fold change of tryptic peptide abundance, ligand vs vehicle (limited proteolysis) (log2 ratio); higher = more trypsin-susceptible (destabilized). The following applies: ligand concentration: 20 uM; sample: mouse liver crude lysate; replicate design: treated separately.
As to “UniProt Q8C2B3 (peptide sequence: LTGLLAQR, peptide start residue: 591)”, the log2 fold change was 0.423. The same measure for “UniProt Q8C3R1 (peptide sequence: LQHCPQELR, peptide start residue: 305)”: -0.393; for “UniProt Q8BXR9 (peptide sequence: PDRHEGFMLK, peptide start residue: 86)”: 0.197.

For “UniProt Q8BXL9 (peptide sequence: GLDVQMETCRR, peptide start residue: 460)”, the log2 fold change was -0.172. The same measure for “UniProt Q8BY46 (peptide sequence: VAVEHSYR, peptide start residue: 177)”: -0.0122.
